{
  "source": "patent EP2152726B1",
  "about": "“ANALGESIC COMPOUNDS” (Fundação de Amparo à Pesquisa do Estado de São Paulo - …, priority 2007, dated 2014)",
  "key": {"[1]": {"test_system": "hyperalgesia induced by chronic constriction of the rat sciatic nerve", "assay": "hyperalgesia induced by chronic constriction of the sciatic nerve (persistent neuropathic pain), rat paw pressure test", "type": "in vivo, rats", "details": "1 µg/kg orally on day 14 after surgery; measured at 24, 48, 72 and 96 hours"}, "[2]": {"test_system": "prostaglandin E2 (PGE2)-induced hyperalgesia", "assay": "prostaglandin E2 (PGE2)-induced hyperalgesia model, rat paw pressure test", "type": "in vivo, rats"}, "[3]": {"test_system": "PGE2-induced hyperalgesia", "assay": "stability of diluted peptide after storage, tested in the PGE2-induced hyperalgesia model (rat paw pressure test)", "type": "in vivo", "details": "diluted in saline, stored 90 days at -20°C; then 5 µg/kg orally, pain threshold 3 hours after PGE2 100 ng/paw"}},
  "note": "Part of at least one peptide drawing is inferred or uncertain, most often the ends. Where a SMILES comes first, the peptide text is derived from it. [ ]: non-standard residue; d: D form. pGlu = O=C1CC[C@@H](C(=O)O)N1",
  "data": [
    {"molecule": "C[C@H](NC(=O)[C@@H]1CCCN1C(=O)[C@H](CCC(N)=O)NC(=O)[C@H](CO)NC(=O)[C@H](CCC(=O)O)NC(=O)CNC(=O)[C@H](CCC(N)=O)NC(=O)[C@H](C)NC(=O)[C@H](CC(N)=O)NC(=O)[C@H](CCC(=O)O)NC(=O)[C@@H]1CCCN1C(=O)[C@H](CO)NC(=O)[C@H](Cc1ccccc1)NC(=O)[C@@H]1CCC(=O)N1)C(=O)O", "note": "[7A14A peptide, pGlu-Phe-Ser-Pro-Glu-Asn-Ala-Gln-Gly-Glu-Ser-Gln-Pro-Ala] ([pGlu]FSPENAQGESQPA-OH)", "values": [
      {"measurement": "analgesic effect (sensitivity to pressure, paw pressure test)", "setting": "[1]", "result": "decreases sensitivity of to pressure in this model of chronic hyperalgesia"},
      {"measurement": "duration of the analgesic effect in neuropathic pain", "setting": "[1]", "result": 72, "unit": "h"},
      {"measurement": "duration of the anti-nociceptive effect", "setting": "[2]; 5 µg/kg oral, single treatment, measured at 3, 120 and 192 hours, PGE2 100 ng/paw 3 hours before each measure, 6 animals per group", "result": "≥ 192", "unit": "h"},
      {"measurement": "anti-nociceptive effect (pain threshold, force necessary to induce withdrawal of the paw)", "setting": "[2]; 5 µg/kg orally, immediately before PGE2 100 ng/paw intraplantar, measured before and 3 hours after PGE2, 5 animals per group", "result": "decreases sensitivity of rat paws to pressure in a model of hyperalgesia and has an analgesic effect"},
      {"measurement": "stability of the peptide after dilution and storage", "setting": "[3]", "result": "stable and able to cause an anti-nociceptive effect and analgesia"}
    ]}
  ]
}
